No constants are given. Whether binding was seen depends on the method and setting. Some entries that bind do so weakly or less than the wild type.
How the values were obtained:
murine PrP^Sc (mouse) [1] = target: murine PrP^Sc (mouse) (UniProt P04925); test: immunohistochemistry on formalin-fixed spleen sections
murine PrP^Sc (mouse) [2] = target: murine PrP^Sc (mouse) (UniProt P04925); test: Western blot of proteinase K-treated, NaPTA-precipitated splenic PrP^Sc
murine PrP^Sc (mouse) [3] = target: murine PrP^Sc (mouse) (UniProt P04925); test: immunohistochemistry on spleen sections (FIG. 2a)
murine PrP^Sc (mouse) [4] = target: murine PrP^Sc (mouse) (UniProt P04925); test: immunoprecipitation from scrapie-infected mouse brain (FIG. 1a)

Measured: binding

B1: ICSM 18 (antibody, V domains shown)
VH: EVQLQQSGPELVKPGSSVKISCKASRNTFTDYNLDWVKQSHGKTLEWIGNVYPNNGVTGYNQKFRGKATLTVDKSSSTAYMELHSLTSEDSAVYYCALYYYDVSYWGQGTLVTVSA
VL: QIVLTQSPAIMSASPGEKVTMTCSASSSVSYMHWYQQKSGTSPKRWIYDTSKLASGVPARFSGSGSGTSYSLTISSMEAEDAATYFCHQWRSNPYTFGGGTKLEIKR
notes: also called biotinylated ICSM 18
binds: all assays above
